These are yes or no findings as the source states them, for the method shown.
Molecular target: C-terminally truncated ErmE (residues 1-290), N-terminally His8-tagged (Saccharopolyspora erythraea) (UniProt P07287)
Assay: SEC; HiLoad 16/600 Superdex 75 pg; 20 mM Tris-SO4 pH 8, 0.3 M (NH4)2SO4, 2 mM beta-mercaptoethanol; 4 °C; both purified

By UniProt entry, the sequences of proteins in these tests, tags left out. Residues count along the entry.
UniProt P07287, residues 1-290: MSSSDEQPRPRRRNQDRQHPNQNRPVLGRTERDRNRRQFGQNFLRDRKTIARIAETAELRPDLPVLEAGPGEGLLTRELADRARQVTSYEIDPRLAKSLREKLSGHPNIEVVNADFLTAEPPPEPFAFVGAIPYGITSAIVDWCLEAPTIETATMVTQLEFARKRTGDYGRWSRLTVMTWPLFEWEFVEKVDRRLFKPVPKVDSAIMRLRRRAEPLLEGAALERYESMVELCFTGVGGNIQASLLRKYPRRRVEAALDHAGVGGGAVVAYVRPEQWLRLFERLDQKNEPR

“C-terminally truncated ErmE (residues 1-290), N-terminally His8-tagged (from UniProt P07287 1-290) (enzyme)” was tested, and the binding was “no binding”.
